{"source": "the supplement of paper PMC8866396", "note": "± gives the standard deviation of the averaged measurements. Some of the results follow. Single values are uncertain here, since repeats match poorly."}
{"test_system": "IL-6-GFP PC-9", "assay": "IL-6-GFP fluorescence relative to DMSO control (fraction of control); higher = more IL-6-GFP expression", "conditions": "compound concentration: 10 uM; treatment time: 48 h", "description": "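IL-6-GFP-overexpressing PC-9 and PC-9GR EGFR-mutant lung cancer cells (3000 cells/well, 96-well) were treated for 48 h with each compound of the Selleck L2000 library at 10 uM. IL-6-GFP fluorescence was read on a high-content screening system, and viability by CCK-8 absorbance on a parallel plate set. Each value was normalised as compound well / DMSO control well; two independent replicates.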"}
{"smiles": "c1ccc2c(c1)Sc1ccccc1N2CC1CN2CCC1CC2", "note": "(configuration not stated) [Mequitazine]", "IL-6-GFP fluorescence": "0.788 ± 0.013"}
{"smiles": "COc1cc(C2c3cc4c(cc3C(O)C3COC(=O)C23)OCO4)cc(OC)c1OC", "note": "(configuration not stated) [Picropodophyllin (PPP)]", "IL-6-GFP fluorescence": "0.909 ± 0.043"}
{"smiles": "Cn1c(CCCC(=O)O)nc2cc(N(CCCl)CCCl)ccc21", "note": "[Bendamustine]", "IL-6-GFP fluorescence": "0.823 ± 0.016"}
{"smiles": "C=CCN1CC(C(=O)N(CCCN(C)C)C(=O)NCC)CC2c3cccc4[nH]cc(c34)CC21", "note": "(configuration not stated) [Cabergoline]", "IL-6-GFP fluorescence": "0.854 ± 0.05"}
{"smiles": "Cl.Cn1c(CCCC(=O)O)nc2cc(N(CCCl)CCCl)ccc21", "note": "[Bendamustine HCl]", "IL-6-GFP fluorescence": "0.931 ± 0.19"}
{"smiles": "CC1CCC2N(C1)CC1C3CC4C(CC(O)C5CC(O)CCC54C)C3CCC1C2(C)O", "note": "(configuration not stated) [Peimine]", "IL-6-GFP fluorescence": "0.873 ± 0.028"}
{"smiles": "O=C(O)CCCc1ccc(N(CCCl)CCCl)cc1", "note": "[Chloroambucil]", "IL-6-GFP fluorescence": "0.937 ± 0.05"}
{"smiles": "Cn1cc(C2=C(c3cn(C4CCN(Cc5ccccn5)CC4)c4ccccc34)C(=O)NC2=O)c2ccccc21", "IL-6-GFP fluorescence": "0.878 ± 0.043"}
{"smiles": "CN(C)NC(=O)CCC(=O)O", "note": "[Daminozide]", "IL-6-GFP fluorescence": "0.953 ± 0.12"}
{"smiles": "COC1=CC2C3Cc4ccc(OC)c(O)c4C2(CCN3C)CC1=O", "note": "(configuration not stated) [Sinomenine]", "IL-6-GFP fluorescence": "0.799 ± 0.18"}
{"smiles": "Cc1c(N)nc(C(CC(N)=O)NCC(N)C(N)=O)nc1C(=O)NC(C(=O)NC(C)C(O)C(C)C(=O)NC(C(=O)NCCc1nc(-c2nc(C(=O)NCCC[S+](C)C)cs2)cs1)C(C)O)C(OC1OC(CO)C(O)C(O)C1OC1OC(CO)C(O)C(OC(N)=O)C1O)c1c[nH]cn1.O=S(=O)([O-])O", "note": "(configuration not stated) [Bleomycin sulfate]", "IL-6-GFP fluorescence": "1.01 ± 0.013"}
{"smiles": "CC(C)C12OC1C1OC13C1(C)CCC4=C(COC4=O)C1CC1OC13C2O", "note": "(configuration not stated) [Triptolide (PG490)]", "IL-6-GFP fluorescence": "1.11 ± 0.18"}
{"smiles": "COc1cc2c(c(OC)c1OC)-c1ccc(OC)c(=O)cc1C(NC(C)=O)CC2", "note": "(configuration not stated) [Colchicine]", "IL-6-GFP fluorescence": "0.87 ± 0.23"}
{"smiles": "CC(C)[N+](C)(CCC(C(N)=O)(c1ccccc1)c1ccccc1)C(C)C.[I-]", "note": "[Isopropamide Iodide]", "IL-6-GFP fluorescence": "0.946 ± 0.079"}
{"smiles": "O=C(O)c1nn(Cc2ccc(Cl)cc2Cl)c2ccccc12", "note": "[Lonidamine]", "IL-6-GFP fluorescence": "0.941 ± 0.28"}
{"smiles": "COC(=O)CC(O)(CCC(C)(C)O)C(=O)OC1C(OC)=CC23CCCN2CCc2cc4c(cc2C13)OCO4", "note": "(configuration not stated) [Harringtonine]", "IL-6-GFP fluorescence": "1.13 ± 0.19"}
{"smiles": "CCC1=CC2CN3CCc4c([nH]c5ccccc45)C(C(=O)OC)(C2)C13", "note": "(configuration not stated) [Catharanthine]", "IL-6-GFP fluorescence": "1.15 ± 0.39"}
{"smiles": "NC(Cc1ccc(N(CCCl)CCCl)cc1)C(=O)O", "note": "(configuration not stated) [Melphalan]", "IL-6-GFP fluorescence": "0.891 ± 0.038"}
{"smiles": "COC1=CC2C3Cc4ccc(OC)c(O)c4C2(CCN3C)CC1=O.Cl", "note": "(configuration not stated) [Sinomenine hydrochloride]", "IL-6-GFP fluorescence": "0.848 ± 0.052"}
{"smiles": "CCC1(O)C(=O)OCc2c1cc1n(c2=O)Cc2cc3ccccc3nc2-1", "note": "(configuration not stated) [Camptothecin]", "IL-6-GFP fluorescence": "0.758 ± 0.099"}
{"smiles": "CC1CC(=O)CC2CCC3C4CCC(O)C4(C)CCC3C12C", "note": "(configuration not stated) [Mesterolone]", "IL-6-GFP fluorescence": "0.8333 ± 0.0049"}
{"smiles": "CC(C)C12OC1C1OC13C1(C)CCC4=C(COC4=O)C1CC1OC13C2=O", "note": "(configuration not stated) [Triptonide]", "IL-6-GFP fluorescence": "1.11 ± 0.14"}
{"smiles": "O.O=P1(N(CCCl)CCCl)NCCCO1", "note": "(configuration not stated) [Cyclophosphamide Monohydrate]", "IL-6-GFP fluorescence": "0.944 ± 0.3"}
{"smiles": "O=c1c2ccccc2[se]n1-c1ccccc1", "note": "[Ebselen]", "IL-6-GFP fluorescence": "0.8369 ± 0.0038"}
{"smiles": "CC12CCC3c4ccc(OC(=O)N(CCCl)CCCl)cc4CCC3C1CCC2OP(=O)([O-])[O-].[Na+].[Na+]", "note": "(configuration not stated) [Estramustine phosphate sodium]", "IL-6-GFP fluorescence": "1.12 ± 0.4"}
{"smiles": "O=C(O)C1C2CCC(O2)C1C(=O)[O][Na]", "note": "(configuration not stated) [Sodium Demethylcantharidate]", "IL-6-GFP fluorescence": "0.709 ± 0.058"}
{"smiles": "CC12CCC3C(CCC4=C(O)C(=O)CCC43C)C1CCC2=O", "note": "(configuration not stated) [Formestane]", "IL-6-GFP fluorescence": "0.893 ± 0.27"}
{"smiles": "O=P1(NCCCl)OCCCN1CCCl", "note": "(configuration not stated) [Ifosfamide]", "IL-6-GFP fluorescence": "0.719 ± 0.26"}
{"smiles": "CCC1(O)C(=O)OCc2c1cc1n(c2=O)Cc2c-1nc1ccccc1c2CCNC(C)C.Cl", "note": "(configuration not stated) [Belotecan (CKD-602) hydrochloride]", "IL-6-GFP fluorescence": "1.23 ± 0.12"}
{"smiles": "CC(C)(C)NCC(O)c1ccccc1Cl.Cl", "note": "(configuration not stated) [Tulobuterol hydrochloride]", "IL-6-GFP fluorescence": "0.714 ± 0.038"}
{"smiles": "Cc1cccc(C(C)c2c[nH]cn2)c1C.Cl", "note": "(configuration not stated) [Medetomidine HCl]", "IL-6-GFP fluorescence": "0.798 ± 0.26"}
{"smiles": "COc1cc2c(cc1O)CC1c3c(cc(O)c(OC)c3-2)CCN1C", "note": "(configuration not stated) [Boldine]", "IL-6-GFP fluorescence": "0.86 ± 0.19"}
